The text below walks through data of patent publication US20250206818A1 (AGENUS, published 2025).

Results are given in words; binding and its absence hold for the method and conditions named. Some results given as binding are weak or reduced against the parent protein; the word gives no strength.

Assay [1] deals with T1, human LAG-3 expressed on cells (human, UniProt P18627 23-525).
T1 construct: whole, on cells; also called CD223
T1 sequence (looked up): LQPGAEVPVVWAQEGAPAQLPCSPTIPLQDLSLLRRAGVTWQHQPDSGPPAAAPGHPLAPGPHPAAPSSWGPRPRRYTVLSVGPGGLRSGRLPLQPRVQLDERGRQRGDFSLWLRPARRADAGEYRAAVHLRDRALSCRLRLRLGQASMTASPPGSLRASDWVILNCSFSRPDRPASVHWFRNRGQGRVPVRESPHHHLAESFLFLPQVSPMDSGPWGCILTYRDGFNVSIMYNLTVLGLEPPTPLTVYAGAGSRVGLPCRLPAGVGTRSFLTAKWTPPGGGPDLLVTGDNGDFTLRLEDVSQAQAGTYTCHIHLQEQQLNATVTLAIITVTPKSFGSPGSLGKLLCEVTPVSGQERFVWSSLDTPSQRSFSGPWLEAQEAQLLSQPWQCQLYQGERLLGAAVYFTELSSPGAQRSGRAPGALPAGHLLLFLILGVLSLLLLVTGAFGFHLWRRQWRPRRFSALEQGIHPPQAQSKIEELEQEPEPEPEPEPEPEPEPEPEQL
In words: flow cytometry, Fab periplasmic extract on Jurkat cells expressing human LAG-3 (FIGS. 1A-1C). As for the experimental part: The anti-LAG-3 Fabs from periplasmic extracts were tested for binding to LAG-3-expressing cells using flow cytometry. Briefly, wild type and human LAG-3-expressing Jurkat cells were plated at 2×10⁵ cells/well in sample buffer (PBS (Gibco, Cat #10010-015)+0.5% FBS (Gibco, Cat #10270-106)) in 96-well U-bottom plates (Sarstedt). 22 μl of anti-LAG-3 Fab periplasmic extract and 83 μl of diluted anti-c-myc antibody (Gentaur, Clone #9E10, Cat #04-cmyc-9E10) were incubated for 30 minutes at room temperature. 100 μl of the periplasmic extract/anti-c-myc mixture was added to cells and then incubated for one hour on ice. Cells were washed three times and then incubated with a goat anti-mouse APC (BD Biosciences, Cat #550826) for 30 minutes on ice. Cells were washed three times and then analyzed with a FACS machine (BD Accuri6).

Assay [2] addresses T2, human LAG-3 (human, UniProt P18627 23-450, limits assumed).
T2 construct: Selections used human LAG-3-Fc, human LAG-3-6His, a 30 aa LAG-3 peptide and/or cells with cynomolgus LAG-3; also called CD223
T2 sequence (looked up): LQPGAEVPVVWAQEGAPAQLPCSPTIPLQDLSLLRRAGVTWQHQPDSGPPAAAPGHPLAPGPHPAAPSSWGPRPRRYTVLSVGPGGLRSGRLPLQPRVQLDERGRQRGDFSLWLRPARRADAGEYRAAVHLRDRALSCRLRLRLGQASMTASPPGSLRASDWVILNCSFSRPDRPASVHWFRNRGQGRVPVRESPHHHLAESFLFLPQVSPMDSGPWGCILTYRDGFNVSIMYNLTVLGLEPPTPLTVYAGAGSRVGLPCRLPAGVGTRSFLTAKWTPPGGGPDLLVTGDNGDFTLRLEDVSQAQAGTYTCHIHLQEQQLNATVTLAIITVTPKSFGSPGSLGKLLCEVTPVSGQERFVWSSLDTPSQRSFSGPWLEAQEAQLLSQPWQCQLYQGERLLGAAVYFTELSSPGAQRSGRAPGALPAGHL
In words: Fab phage display selection; periplasmic extracts screened by ELISA or flow cytometry. The text has this:
Anti-LAG-3 antibodies were identified by generation and selection of an immunized Fab phage display library. […] Per mouse, a Fab library was then generated by random-primed cDNA using total RNA as a template to amplify variable regions from mouse antibody genes. Heavy and kappa chain amplicons were combined and cloned into phagemid vectors. […] The 30 amino acid human LAG-3 peptide is a biotinylated peptide comprising the amino acid sequence of […] (SEQ ID NO: 199). Periplasmic extracts of selected Fab clones were then screened by ELISA or flow cytometry. Antibody sequencing and off-rate analysis were then performed on anti-LAG-3 Fabs.
(In general: ELISA stands for enzyme-linked immunosorbent assay.)

B1: P13F01 Fab (Fab, V domains shown)
VH: QVQLQQPGAELVKPGASVELSCTASGFNIRDTYMYWVKQRPEQGLEWIGRIDPANGNTKFDPKFQDRATMTADTSSNTAYLQLSSLTSEDTAVYYCTTYFYRYDVGGFDYWGQGTTLTVS
VL: EIVLTQSPALMAASPGEKVTITCSVSSSISSSNLHWYQQKSGTSPKLWIYGTSNLASGVPVRFSGSGSGTSYSLTISSMEAEDAATYYCQQWSSYPFTFGSGTKLEIK
Regarding B1, the binding entry in assay [1] and in assay [2] was “binds” throughout.

B2: P14C04 Fab (Fab, V domains shown)
VH: QVQLQQPGAELVKPGASVKLSCTASGFNIKDTYMYWVKQRPEQGLDWIGRIDPANGNTHFDPKFQGKATITADTSSNTAYLQLSSLTSEDTAVYYCSTYFYRYDVGGFDYWGQGTTLTVS
VL: ENVLTQSPALMAASPGEKVTITCSVSSSISSSNLHWYQQKSGTSPKLWIYGTSNLASGVPVRFSGSGSGTSYSLTISSMEAEDAATYYCQQWSSYPFTFGSGTKLEIK
As for B2, the binding result in assay [1] and in assay [2] was “binds” in each case.

B3: P14A04 Fab (Fab, V domains shown)
VH: QVQLQQPGAELVKPGASVELSCTASGFNIRDTYMYWVKQRPEQGLEWIGRIDPANGNTKFDPKFQDRATMTADTSSNTAYLQLSSLTSEDTAVYYCTTYFYRYDVGGFDYWGQGTTLTVS
VL: DIVLTQSPALMAASPGEKVTITCSVSSSISSSNLHWFQQKSGTSPKLWIYGTSNLASGVPVRFSGSGSGTSYSLTISSMEAEDAATYYCQQWSSYPFTFGSGTKLEIK
For B3, the binding entry in assay [1] and in assay [2] was “binds” throughout.

B4: P15F06 Fab (Fab, V domains shown)
VH: QVQLKQSGAELVKPGASVELSCTASGFNIRDTYMYWVKQRPEQGLEWIGRIDPANGNTKFDPKFQDRATMTADTSSNTAYLQLSSLTSEDTAVYYCTTYFYRYDVGGFDYWGQGTTLTVS
VL: ENVLTQSPALMAASPGEKVTITCSVSSSISSSTLHWFQQKSGTSPKLWIYGTSNLASGVPVRFSGSGSGTSYSLTISSMEAEDAATYYCQQWSSYPWTFGGGTKLEIK
For B4, the binding entry in assay [1] and in assay [2] was “binds” each time.

B5: P15E06 Fab (Fab, V domains shown)
VH: QVQLQQPGAELVKPGASVELSCTASGFNIRDTYMYWVKQRPEQGLEWIGRIDPANGNTKFDPKFQDRATMTADTSSNTAYLQLSSLTSEDTAVYYCTTYFYRYDVGGFDYWGQGTTLTVS
VL: ENVLTQSPALMAASPGEKVTITCSVSSGISSSNLHWYQQKSGTSPKLWIYGTSNLASGVPVRFSGSGSGTSYSLTISSMEAEDAATYYCQQWSRYPWTFGGGTKLEIK
For B5, the binding result in assay [1] and in assay [2] was “binds” each time.
